Source: the supplement of paper PMC10849652
The list shows a part of the results.

Amino acid sequences for entries named in this document (tags omitted). A change or cut given only in a name is not applied to a line headed by its entry.
UniProt Q13362, whole entry, looked up: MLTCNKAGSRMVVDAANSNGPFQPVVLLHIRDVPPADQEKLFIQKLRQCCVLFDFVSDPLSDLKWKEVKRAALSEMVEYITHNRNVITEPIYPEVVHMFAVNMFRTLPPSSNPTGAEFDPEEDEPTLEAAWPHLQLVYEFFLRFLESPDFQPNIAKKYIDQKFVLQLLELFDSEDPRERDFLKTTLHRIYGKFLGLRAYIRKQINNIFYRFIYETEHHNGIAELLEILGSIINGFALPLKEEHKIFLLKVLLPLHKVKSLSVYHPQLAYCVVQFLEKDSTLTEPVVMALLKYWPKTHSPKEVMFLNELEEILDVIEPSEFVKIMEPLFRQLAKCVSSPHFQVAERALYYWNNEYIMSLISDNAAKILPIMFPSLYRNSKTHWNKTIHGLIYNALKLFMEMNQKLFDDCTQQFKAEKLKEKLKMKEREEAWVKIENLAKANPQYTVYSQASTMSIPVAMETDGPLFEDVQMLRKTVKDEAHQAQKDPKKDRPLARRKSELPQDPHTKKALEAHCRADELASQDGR
UniProt Q969Q6: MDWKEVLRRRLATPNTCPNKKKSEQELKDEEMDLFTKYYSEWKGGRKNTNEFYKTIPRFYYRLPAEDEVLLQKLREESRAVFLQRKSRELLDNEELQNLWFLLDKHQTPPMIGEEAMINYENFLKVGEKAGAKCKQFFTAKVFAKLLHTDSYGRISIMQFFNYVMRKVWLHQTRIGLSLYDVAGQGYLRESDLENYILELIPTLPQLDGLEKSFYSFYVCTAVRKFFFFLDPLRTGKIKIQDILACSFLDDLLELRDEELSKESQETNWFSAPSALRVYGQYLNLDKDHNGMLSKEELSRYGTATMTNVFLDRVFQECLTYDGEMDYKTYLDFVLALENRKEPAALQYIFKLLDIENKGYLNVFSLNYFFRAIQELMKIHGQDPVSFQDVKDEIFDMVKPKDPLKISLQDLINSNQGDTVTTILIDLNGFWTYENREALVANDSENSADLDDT
UniProt Q13029: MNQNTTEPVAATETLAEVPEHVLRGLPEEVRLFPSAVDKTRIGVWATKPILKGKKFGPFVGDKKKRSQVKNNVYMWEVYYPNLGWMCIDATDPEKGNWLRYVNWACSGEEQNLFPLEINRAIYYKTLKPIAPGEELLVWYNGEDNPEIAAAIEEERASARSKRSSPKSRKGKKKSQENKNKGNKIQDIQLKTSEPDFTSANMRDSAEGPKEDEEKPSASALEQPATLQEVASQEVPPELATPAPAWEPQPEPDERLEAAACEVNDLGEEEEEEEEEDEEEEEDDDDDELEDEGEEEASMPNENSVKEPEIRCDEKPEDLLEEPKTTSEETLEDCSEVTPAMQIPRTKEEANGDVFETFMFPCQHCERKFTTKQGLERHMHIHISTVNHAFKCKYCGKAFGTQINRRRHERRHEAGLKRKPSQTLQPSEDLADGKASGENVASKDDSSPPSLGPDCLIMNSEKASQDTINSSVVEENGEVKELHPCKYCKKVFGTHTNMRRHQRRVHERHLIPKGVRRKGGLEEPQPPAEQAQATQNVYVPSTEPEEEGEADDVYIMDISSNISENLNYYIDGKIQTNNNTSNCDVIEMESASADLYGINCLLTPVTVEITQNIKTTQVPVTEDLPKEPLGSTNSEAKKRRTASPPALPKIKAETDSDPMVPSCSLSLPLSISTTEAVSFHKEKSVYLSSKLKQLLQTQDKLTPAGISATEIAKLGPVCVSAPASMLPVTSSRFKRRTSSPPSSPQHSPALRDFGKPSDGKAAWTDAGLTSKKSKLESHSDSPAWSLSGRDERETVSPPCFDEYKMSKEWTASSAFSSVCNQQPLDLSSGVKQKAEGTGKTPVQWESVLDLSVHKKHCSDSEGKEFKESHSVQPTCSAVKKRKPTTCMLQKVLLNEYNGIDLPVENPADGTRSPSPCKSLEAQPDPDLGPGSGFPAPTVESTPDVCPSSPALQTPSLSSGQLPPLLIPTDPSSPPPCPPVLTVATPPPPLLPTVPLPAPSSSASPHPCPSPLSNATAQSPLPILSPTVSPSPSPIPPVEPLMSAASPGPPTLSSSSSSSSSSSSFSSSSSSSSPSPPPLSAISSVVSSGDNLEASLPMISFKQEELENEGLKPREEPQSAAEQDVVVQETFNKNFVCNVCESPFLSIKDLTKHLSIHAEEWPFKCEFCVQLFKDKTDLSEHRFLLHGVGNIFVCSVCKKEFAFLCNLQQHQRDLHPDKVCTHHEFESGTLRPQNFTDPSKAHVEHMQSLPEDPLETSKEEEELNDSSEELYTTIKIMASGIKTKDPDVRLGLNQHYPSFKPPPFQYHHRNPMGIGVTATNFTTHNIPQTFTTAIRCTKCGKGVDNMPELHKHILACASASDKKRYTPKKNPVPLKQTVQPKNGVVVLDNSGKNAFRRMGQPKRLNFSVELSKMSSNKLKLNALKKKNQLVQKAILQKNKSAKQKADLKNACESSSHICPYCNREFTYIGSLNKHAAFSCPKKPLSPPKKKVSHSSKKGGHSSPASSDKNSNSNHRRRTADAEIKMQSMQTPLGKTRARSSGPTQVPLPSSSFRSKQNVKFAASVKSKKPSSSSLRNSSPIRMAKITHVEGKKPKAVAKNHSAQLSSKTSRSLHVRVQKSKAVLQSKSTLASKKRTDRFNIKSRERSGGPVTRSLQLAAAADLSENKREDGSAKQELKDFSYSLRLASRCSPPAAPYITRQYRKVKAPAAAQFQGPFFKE
UniProt Q96LW4: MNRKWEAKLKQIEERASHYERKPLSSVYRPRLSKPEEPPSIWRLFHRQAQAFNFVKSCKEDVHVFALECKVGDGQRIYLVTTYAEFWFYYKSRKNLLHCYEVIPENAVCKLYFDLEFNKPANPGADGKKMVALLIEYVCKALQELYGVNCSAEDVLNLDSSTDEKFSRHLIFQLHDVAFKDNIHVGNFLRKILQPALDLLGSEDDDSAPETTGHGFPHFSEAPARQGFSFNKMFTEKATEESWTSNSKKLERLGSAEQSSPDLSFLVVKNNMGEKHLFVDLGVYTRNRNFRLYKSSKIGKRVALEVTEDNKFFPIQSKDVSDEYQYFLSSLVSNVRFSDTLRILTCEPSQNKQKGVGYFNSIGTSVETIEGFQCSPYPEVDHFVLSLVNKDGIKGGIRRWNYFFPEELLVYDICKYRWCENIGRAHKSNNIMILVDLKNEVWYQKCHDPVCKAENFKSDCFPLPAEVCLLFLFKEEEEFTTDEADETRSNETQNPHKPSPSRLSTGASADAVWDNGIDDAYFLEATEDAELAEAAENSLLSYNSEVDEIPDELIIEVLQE
UniProt O60437: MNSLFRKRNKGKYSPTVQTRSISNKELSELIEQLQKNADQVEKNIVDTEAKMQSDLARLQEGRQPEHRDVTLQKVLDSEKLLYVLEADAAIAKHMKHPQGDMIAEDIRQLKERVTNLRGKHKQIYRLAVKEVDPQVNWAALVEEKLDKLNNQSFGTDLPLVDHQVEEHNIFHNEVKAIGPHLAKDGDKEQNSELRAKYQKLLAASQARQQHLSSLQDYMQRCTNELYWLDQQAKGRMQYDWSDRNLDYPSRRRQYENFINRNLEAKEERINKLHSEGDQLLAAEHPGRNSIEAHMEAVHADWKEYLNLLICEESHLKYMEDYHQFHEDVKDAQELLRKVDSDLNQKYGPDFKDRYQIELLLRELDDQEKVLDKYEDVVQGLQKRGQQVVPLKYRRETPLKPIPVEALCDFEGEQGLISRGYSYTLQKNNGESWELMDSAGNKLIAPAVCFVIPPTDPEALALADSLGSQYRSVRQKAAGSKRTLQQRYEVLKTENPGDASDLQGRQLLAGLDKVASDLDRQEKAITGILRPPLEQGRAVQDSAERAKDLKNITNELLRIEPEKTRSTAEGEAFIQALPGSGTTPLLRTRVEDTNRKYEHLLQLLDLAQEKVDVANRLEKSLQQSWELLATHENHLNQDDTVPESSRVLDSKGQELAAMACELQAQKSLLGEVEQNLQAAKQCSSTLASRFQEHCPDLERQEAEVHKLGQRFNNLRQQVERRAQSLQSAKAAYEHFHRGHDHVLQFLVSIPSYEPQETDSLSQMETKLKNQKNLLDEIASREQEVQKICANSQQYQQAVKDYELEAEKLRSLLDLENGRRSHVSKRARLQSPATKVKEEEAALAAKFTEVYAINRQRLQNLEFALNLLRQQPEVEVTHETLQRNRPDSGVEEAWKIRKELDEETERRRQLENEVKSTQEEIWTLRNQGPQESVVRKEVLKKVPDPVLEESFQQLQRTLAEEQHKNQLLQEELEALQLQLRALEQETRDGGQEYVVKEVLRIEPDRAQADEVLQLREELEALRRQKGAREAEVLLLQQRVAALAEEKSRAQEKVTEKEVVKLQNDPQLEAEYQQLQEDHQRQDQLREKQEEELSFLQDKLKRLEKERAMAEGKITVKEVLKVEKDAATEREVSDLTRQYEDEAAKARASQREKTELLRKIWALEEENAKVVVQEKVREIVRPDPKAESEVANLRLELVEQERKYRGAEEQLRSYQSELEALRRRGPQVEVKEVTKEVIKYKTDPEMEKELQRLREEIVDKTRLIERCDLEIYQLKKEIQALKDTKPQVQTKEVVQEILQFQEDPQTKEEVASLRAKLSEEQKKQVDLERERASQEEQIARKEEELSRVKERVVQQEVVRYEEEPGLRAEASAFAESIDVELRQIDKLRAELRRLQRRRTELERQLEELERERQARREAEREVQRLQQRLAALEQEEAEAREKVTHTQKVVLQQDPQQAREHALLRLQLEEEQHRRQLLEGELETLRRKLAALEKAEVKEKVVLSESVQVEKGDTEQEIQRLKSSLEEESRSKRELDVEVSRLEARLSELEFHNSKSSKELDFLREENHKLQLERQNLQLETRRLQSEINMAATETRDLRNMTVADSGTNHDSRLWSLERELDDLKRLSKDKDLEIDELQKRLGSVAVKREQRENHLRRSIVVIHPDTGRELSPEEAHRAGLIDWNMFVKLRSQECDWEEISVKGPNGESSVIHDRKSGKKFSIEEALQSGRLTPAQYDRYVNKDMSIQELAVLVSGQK
UniProt P55345: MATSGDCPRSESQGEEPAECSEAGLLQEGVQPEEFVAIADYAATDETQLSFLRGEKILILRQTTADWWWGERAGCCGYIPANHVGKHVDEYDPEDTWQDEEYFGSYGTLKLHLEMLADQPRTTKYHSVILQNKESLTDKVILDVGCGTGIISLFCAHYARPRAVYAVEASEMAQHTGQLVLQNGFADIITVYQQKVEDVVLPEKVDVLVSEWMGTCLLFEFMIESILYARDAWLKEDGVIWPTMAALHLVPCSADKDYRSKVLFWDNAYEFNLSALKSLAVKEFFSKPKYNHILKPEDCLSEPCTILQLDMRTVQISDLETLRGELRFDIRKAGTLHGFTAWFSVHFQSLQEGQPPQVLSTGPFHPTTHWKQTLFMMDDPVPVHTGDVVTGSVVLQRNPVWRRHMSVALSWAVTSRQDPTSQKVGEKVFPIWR
UniProt Q9Y255: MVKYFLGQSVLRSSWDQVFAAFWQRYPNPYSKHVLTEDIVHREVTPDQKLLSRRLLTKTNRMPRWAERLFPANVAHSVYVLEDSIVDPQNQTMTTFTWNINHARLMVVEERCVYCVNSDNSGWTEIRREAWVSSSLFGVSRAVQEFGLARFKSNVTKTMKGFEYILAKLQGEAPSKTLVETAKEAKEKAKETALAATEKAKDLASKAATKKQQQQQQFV
UniProt Q9BZL4: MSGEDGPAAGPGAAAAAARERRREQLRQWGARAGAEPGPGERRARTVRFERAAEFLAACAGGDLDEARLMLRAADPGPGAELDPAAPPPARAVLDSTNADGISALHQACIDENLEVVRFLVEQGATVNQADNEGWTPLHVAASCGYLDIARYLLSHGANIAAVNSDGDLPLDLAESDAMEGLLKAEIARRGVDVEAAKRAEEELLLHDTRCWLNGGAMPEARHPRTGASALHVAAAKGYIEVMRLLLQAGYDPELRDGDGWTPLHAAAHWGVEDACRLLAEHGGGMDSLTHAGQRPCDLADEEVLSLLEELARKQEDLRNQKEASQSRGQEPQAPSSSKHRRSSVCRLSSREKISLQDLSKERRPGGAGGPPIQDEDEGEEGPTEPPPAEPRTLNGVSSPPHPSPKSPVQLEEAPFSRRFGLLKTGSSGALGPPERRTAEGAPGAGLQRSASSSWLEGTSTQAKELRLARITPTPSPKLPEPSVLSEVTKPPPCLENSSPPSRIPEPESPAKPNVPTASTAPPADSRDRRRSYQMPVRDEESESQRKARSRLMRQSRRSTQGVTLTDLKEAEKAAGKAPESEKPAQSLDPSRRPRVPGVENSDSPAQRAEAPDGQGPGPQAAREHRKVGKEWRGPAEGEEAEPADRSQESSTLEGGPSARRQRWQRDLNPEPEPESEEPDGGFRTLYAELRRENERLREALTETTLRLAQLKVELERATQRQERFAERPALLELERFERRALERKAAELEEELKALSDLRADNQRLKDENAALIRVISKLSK

compound: Cn1cc(-c2ccc3c(c2)CCN3C(=O)Cc2cccc(C(F)(F)F)c2)c2c(N)ncnc21; experiment: log2 fold change, soluble protein after heating vs DMSO (PISA); higher = thermal stabilisation; K562 lysate, 10 uM; active = over 0.2 and 3.5 SD of the protein, either way, in both replicates (recomputed)
Method in brief: (§1)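 Log-two fold change in thermal stability relative to solvent controls is reported from duplicates. For each sample, crude K562 extract from dounce-homogenised pellets in PBS pH 7.4 with 1 mM MgCl2, at 1 mg/mL protein, was treated with 10 μM compound for 30 min. Aliquots heated for 3 min across 48°C-58°C were pooled, brought to 0.5% NP-40 at 4°C and cleared at 21,000xg for 90 min. The supernatant was quantified by TMTpro 16plex LC-MS/MS with channel sums equalised.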

Row | Target | log2 fold change
1 | PPTC7 (UniProt Q8NI37) | inactive: 0.176
2 | PPP2R5C isoform 2 (UniProt Q13362) | inactive: 0.028
3 | PPME1 (UniProt Q9Y570) | inactive: -0.08
4 | PRDM15 (UniProt P57071) | inactive: 0.334
5 | PPM1B isoform 2 (UniProt O75688) | inactive: -0.03
6 | PRG2 (UniProt P13727) | inactive: -0.028
7 | PPP2R3C (UniProt Q969Q6) | inactive: -0.009
8 | PRDM2 (UniProt Q13029) | inactive: -0.057
9 | PRIMPOL (UniProt Q96LW4) | inactive: -0.037
10 | PPIP5K2 (UniProt H0Y9S9) | inactive: 0.052
11 | PPL (UniProt O60437) | inactive: -1.39
12 | PRMT2 (UniProt P55345) | inactive: 0.133
13 | PROSER3, A0A2R8Y8D9 | inactive: 0.077
14 | PROSER1 (UniProt Q86XN7) | inactive: 0.011

compound: Cn1cc(CNCC2CCN(c3ncc(C(=O)NO)cn3)CC2)c2ccccc21 [quisinostat]; experiment: as above
Method in brief: as §1

Row | Target | log2 fold change
15 | PRPF40B (UniProt Q6NWY9) | inactive: -0.023
16 | PPP2R5C isoform 2 (UniProt Q13362) | active: 0.347
17 | PROSER3 (UniProt Q2NL68) | inactive: 0.035
18 | PRELID1 (UniProt Q9Y255) | inactive: 0.113
19 | PRG2 (UniProt P13727) | inactive: 0.061
20 | PPP1R12C isoform 3 (UniProt Q9BZL4) | inactive: -0.025
21 | PRIMPOL (UniProt Q96LW4) | inactive: -0.039
22 | PPL (UniProt O60437) | inactive: -1.14
23 | PROSER3, A0A2R8Y8D9 | inactive: -0.004

compound: Cn1cncc1[C@@](N)(c1ccc(Cl)cc1)c1ccc2c(c1)c(-c1cccc(Cl)c1)cc(=O)n2C [tipifarnib]; experiment: as above
Method in brief: as §1

Row | Target | log2 fold change
24 | PPP2R5C isoform 2 (UniProt Q13362) | inactive: 0.028
25 | PPP6R3 isoform 2 (UniProt Q5H9R7) | inactive: -0.05
26 | PPT2, A0A140T9Y1 | inactive: 0.1
27 | PRELID1 (UniProt Q9Y255) | inactive: 0.006
28 | PPM1B isoform 2 (UniProt O75688) | inactive: -0.04
29 | PPP2R3C (UniProt Q969Q6) | inactive: 0.057
30 | PPP2CA (UniProt E7ESG8) | inactive: 0.356
31 | PRIMPOL (UniProt Q96LW4) | inactive: 0.17
32 | PPL (UniProt O60437) | inactive: 0.036
33 | PROSER1 (UniProt Q86XN7) | inactive: -0.077
